Results are given in words; binding and its absence hold for the method and conditions named. In cells and extracts the contact can be indirect. Some entries that bind do so weakly or less than the wild type.
Target: T1, Ligand dependent nuclear receptor corepressor (LCOR), endogenous (human (endogenous in A498, CAKI and HEK293T)) (UniProt Q96JN0)
T1 sequence: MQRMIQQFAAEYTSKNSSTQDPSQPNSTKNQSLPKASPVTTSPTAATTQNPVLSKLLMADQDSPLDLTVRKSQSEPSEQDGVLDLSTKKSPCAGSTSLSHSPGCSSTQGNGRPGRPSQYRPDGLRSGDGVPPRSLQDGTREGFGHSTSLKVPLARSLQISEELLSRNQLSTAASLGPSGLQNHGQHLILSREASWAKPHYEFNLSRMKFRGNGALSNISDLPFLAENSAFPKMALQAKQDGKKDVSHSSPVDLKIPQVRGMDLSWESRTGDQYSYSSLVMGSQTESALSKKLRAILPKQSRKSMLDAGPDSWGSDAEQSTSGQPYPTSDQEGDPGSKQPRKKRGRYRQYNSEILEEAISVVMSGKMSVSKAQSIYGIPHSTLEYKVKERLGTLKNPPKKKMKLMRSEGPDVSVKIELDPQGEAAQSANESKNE
Assay: co-IP; endogenous proteins in A498, CAKI and HEK293T lysates; primary antibody or IgG overnight at 4°C, protein A/G magnetic beads 4 h, washed with RIPA, western blot

By UniProt entry, the sequences of proteins in these tests, tags left out.
UniProt Q01196: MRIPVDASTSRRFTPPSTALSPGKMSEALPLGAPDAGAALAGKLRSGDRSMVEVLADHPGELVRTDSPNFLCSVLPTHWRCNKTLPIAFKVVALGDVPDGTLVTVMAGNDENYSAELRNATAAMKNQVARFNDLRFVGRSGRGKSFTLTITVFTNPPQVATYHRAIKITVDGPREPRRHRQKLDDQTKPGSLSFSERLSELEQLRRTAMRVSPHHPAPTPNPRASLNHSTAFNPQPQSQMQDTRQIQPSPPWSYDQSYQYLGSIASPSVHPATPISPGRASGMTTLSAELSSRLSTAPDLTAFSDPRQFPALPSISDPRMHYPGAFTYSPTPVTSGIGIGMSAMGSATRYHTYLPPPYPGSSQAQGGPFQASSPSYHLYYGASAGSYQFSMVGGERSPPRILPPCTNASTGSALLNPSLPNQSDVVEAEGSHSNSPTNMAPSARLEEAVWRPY

binding: binds
Substance: RUNX family transcription factor 1 (RUNX1), endogenous (from UniProt Q01196 1-453)

Reference: paper PMC11900815
